This data set concerns human keratinocytes (HaCaT). Description: MTT assay, cytotoxicity. The data set is classed as cell-based. The method, then: To evaluate the cytotoxicity of the test peptides (IC50), the classic MTT assay on 96-well plates was performed for human keratinocytes (HaCaT) which were acquired from the ATCC. The assay was based on colorimetric determination of the cell metabolic activity where the color intensity reflected the number of live cells that could be measured spectrophotometrically. The cell line was cultured in a Dulbecco’s modified Eagle Medium (Invitrogen) supplemented with 10% fetal bovine serum (v/v), 100 units/mL of penicillin, 100 μg/mL of streptomycin, and 2 mM L-glutamine and was kept at 37 °C in a humidified 5% CO2 incubator. Briefly, a day after plating of 500 cells per well, a series of concentrations (0.5–500 μg/mL) of the test compounds were applied. DMSO was added to the control cells at a final concentration of 1.0% (v/v), which was related to the maximum concentration of the solvent compounds used in the experiment. After 24 h of incubation at 37 °C (humidified 5% CO2 incubator) with the peptides, a medium containing 1 mg/mL of MTT was added to the wells up to a final concentration of 0.5 mg/mL. Subsequently, the plates were incubated at 37 °C for 4 h. Then, the medium was aspirated, and the formazan product was solubilized with DMSO. The background absorbance at 630 nm was subtracted from that at 570 nm for each well (Epoch, BioTek Instruments, Winooski, VT, USA). Six replicates were conducted for each concentration. All experiments were repeated at least twice and the resulting IC50 values were calculated with a GraFit 7 software (v. 7.0, Erithacus, Berkley, CA, USA).
The selectivity indexes were calculated for all the strains as IC50/MIC. According to IC50, in most cases, glycosylation caused only a slight decrease in toxicity. However, in contrast with SI calculated for HC50, the differences between USCLs and gUSCLs are not so distinct. […] Moreover, toxicity of USCLs and gUSCLs is high and exceeds their antimicrobial activity. The lipopetides were not selective against Gram-negative strains (K. pneumoniae, A. baumannii, P. aeruginosa, K. aerogenes) over human cells. A few USCLs were selective (SI > 1) against E. faecium and S. aureus with SI up to 1.87; and some gUSCLs were selective against E. faecium but not against S. aureus, with SI between 0.63 and 1.73. […] In this case, SI of gUSCLs was noticeably […] than that of corresponding parent USCLs (2.07, 1.99, 2.67 vs. 2.53, 2.36, 3.46, respectively). Selectivity indexes were plotted against adjusted retention time (Figures S15–S21). A moderate linear correlation was found in USCLs and K. pneumoniae, C. glabrata, and gUSCLs and K. pneumoniae, K. aerogenes (R^2 between 0.6064 and 0.6481). A relatively high linear correlation was obtained for USCLs and K. aerogenes (R^2 of 0.8214) and also for gUSCLs and C. glabrata (R^2 of 0.9223).
A general note: Tetrazolium dyes change colour on reduction, which living cells bring about.

Data on 4 molecules can be found in article PMC9855884, “Glycosylated Lipopeptides—Synthesis and Evaluation of Antimicrobial Activity and Cytotoxicity” (Biomolecules, 2023).

Where a SMILES comes first, the peptide text is derived from it. The star is where a group is joined. βGlcNAc = CC(=O)N[C@@H]1[C@@H](O)[C@H](O)[C@@H](CO)O[C@H]1*; Stearoyl = CCCCCCCCCCCCCCCCCC(=O)*; Palmitoyl = CCCCCCCCCCCCCCCC(=O)*

As for `CCCCCCCCCCCCCCCC(=O)N[C@@H](CCCNC(=N)N)C(=O)N[C@@H](CCCNC(=N)N)C(=O)N[C@@H](CO[C@@H]1O[C@H](CO)[C@@H](O)[C@H](O)[C@H]1NC(C)=O)C(N)=O` [Peptide 15, C16-RRS(GlcNAc)-NH2] (Palmitoyl-Arg-Arg-Ser(βGlcNAc)-NH2), the “Selectivity Index (SI), IC50/MIC” value reads like this: (A. baumannii) 0.16; (C. glabrata) 0.32; (E. faecium) 0.65; (K. aerogenes) 0.02; (K. pneumoniae) 0.02; (P. aeruginosa) 0.08. Besides, under “S. aureus”, the “Selectivity Index (SI), IC50/MIC” value worked out at 0.32.

For the molecule `CCCCCCCCCCCCCCCCCC(=O)N[C@@H](CO[C@@H]1O[C@H](CO)[C@@H](O)[C@H](O)[C@H]1NC(C)=O)C(=O)N[C@@H](CCCNC(=N)N)C(=O)N[C@@H](CCCNC(=N)N)C(N)=O` [Peptide 16, C18-S(GlcNAc)RR-NH2] (Stearoyl-Ser(βGlcNAc)-Arg-Arg-NH2), the “Selectivity Index (SI), IC50/MIC” value was 0.63 (A. baumannii); 2.53 (C. glabrata); 0.63 (E. faecium); 0.32 (K. aerogenes); 0.16 (K. pneumoniae); 0.32 (P. aeruginosa). The “Selectivity Index (SI), IC50/MIC” value (S. aureus) is on record as 0.63.

`CCCCCCCCCCCCCCCCCC(=O)N[C@@H](CCCNC(=N)N)C(=O)N[C@@H](CO[C@@H]1O[C@H](CO)[C@@H](O)[C@H](O)[C@H]1NC(C)=O)C(=O)N[C@@H](CCCNC(=N)N)C(N)=O` [Peptide 17, C18-RS(GlcNAc)R-NH2] (Stearoyl-Arg-Ser(βGlcNAc)-Arg-NH2): the “Selectivity Index (SI), IC50/MIC” value is, setting by setting: (A. baumannii) 0.59; (C. glabrata) 2.36; (E. faecium) 1.18; (K. aerogenes) 0.30; (K. pneumoniae) 0.59; (P. aeruginosa) 0.30. Further, the “Selectivity Index (SI), IC50/MIC” value (S. aureus) came to 0.59.

`CCCCCCCCCCCCCCCCCC(=O)N[C@@H](CCCNC(=N)N)C(=O)N[C@@H](CCCNC(=N)N)C(=O)N[C@@H](CO[C@@H]1O[C@H](CO)[C@@H](O)[C@H](O)[C@H]1NC(C)=O)C(N)=O` [Peptide 18, C18-RRS(GlcNAc)-NH2] (Stearoyl-Arg-Arg-Ser(βGlcNAc)-NH2): the “Selectivity Index (SI), IC50/MIC” value is reported as 0.43 (A. baumannii); 3.46 (C. glabrata); 1.73 (E. faecium); 0.43 (K. aerogenes); 0.43 (K. pneumoniae); 0.43 (P. aeruginosa). Further, under “S. aureus”, the “Selectivity Index (SI), IC50/MIC” value is 0.87.
